PubChem BioAssay AID1259254 – NCATS – 2017
Screen: 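Finding genes that stop cells copying their DNA twice in one cycle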 (primary screen). Cell system: human HCT116 colorectal cancer cells. Reagents: single siRNA against human genes. Timing: 3 days. Detection: 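Nuclei stained with Hoechst and imaged; cell-cycle phase assigned by DNA content; G2 share scaled per plate, non-targeting siRNA 0%, GMNN siRNA 100%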. Scale: G2 robust z-score and G2 cells, % of GMNN control: higher = more G2 cells, more excess DNA replication; raw share of cells in G2: higher = larger share of cells with G2 DNA content. Active means: 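An siRNA counts as active if its G2 robust z-score lies at least 5 MADs above the screen median; here such calls match roughly 38% of GMNN control or more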.
Shown is an unselected part of about 59,000 reagents. About 1,550 of all reagents (2.6%) were called active. 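G2 share is only a proxy for re-replication; each gene was hit by three separate siRNAs, and active genes were retested.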 Raw values are not corrected between plates. Entries without a mark were called inactive. Reagents against one gene are numbered here. Not given: the amount of reagent.

no.	gene symbol	reagent no.	G2 robust z-score	G2 cells, % of GMNN control	raw share of cells in G2 (%)
1	CABP2	1	0.284	4.97	4.55
2	CABP2	2	-0.684	-1.85	5.07
3	CABP2	3	0.266	4.84	5.15
4	WNT3	1	-1.01	-4.16	3.84
5	WNT3	2	-0.903	-3.38	3.36
6	WNT3	3	-0.693	-1.91	3.55
7	RGL2	1	0.099	3.66	6.24
8	RGL2	2	7.18 (active)	53.5	25.1
9	RGL2	3	1.64	14.5	8.97
10	OR4S1	1	0.0167	3.08	4.7
11	OR4S1	2	3.05	24.5	11.5
12	OR4S1	3	0.139	3.95	4.45
13	WNT8B	1	4.85	37.1	21.6
14	WNT8B	2	0.452	6.15	6.33
15	WNT8B	3	-0.257	1.16	3.76
16	RPS12P4	1	3.5	27.6	14.5
17	RPS12P4	2	-0.221	1.41	5.38
18	RPS12P4	3	0.23	4.59	5.48
19	ASB10	1	0.27	4.86	7.1
20	ASB10	2	-0.15	1.91	5.89
21	ASB10	3	-0.945	-3.68	2.5
22	WARS1	1	-0.0686	2.48	6.65
23	WARS1	2	0.29	5.01	6.12
24	WARS1	3	3.01	24.1	12.4
25	ZDHHC23	1	-1.07	-4.58	3.77
26	ZDHHC23	2	-0.751	-2.32	3.85
27	ZDHHC23	3	2.05	17.4	12
28	TGFB2-AS1	1	-0.327	0.667	3.85
29	TGFB2-AS1	2	-0.357	0.456	3.71
30	TGFB2-AS1	3	0.681	7.76	5.61
31	SERPINA1	1	-0.155	1.87	5.4
32	SERPINA1	2	1.1	10.7	7.53
33	SERPINA1	3	-0.831	-2.88	2.63
34	ITGA1	1	-0.621	-1.4	3.69
35	ITGA1	2	-0.809	-2.72	4.65
36	ITGA1	3	0.0246	3.14	6.19
37	GLIS3	1	3.54	27.9	12.7
38	GLIS3	2	0.0291	3.17	4.27
39	GLIS3	3	-0.645	-1.57	2.97
40	MRGBP	1	1.08	10.6	8.59
41	MRGBP	2	0.0485	3.31	5.51
42	MRGBP	3	-0.0449	2.65	3.98
43	MRI1	1	-0.695	-1.92	3.47
44	MRI1	2	-1.31	-6.26	1.6
45	MRI1	3	-0.692	-1.9	1.83
46	MRPS12	1	3.51	27.6	16.7
47	MRPS12	2	-0.944	-3.67	2.77
48	MRPS12	3	-0.493	-0.502	3.17

Records listed above marked active, once more:
gene symbol	reagent no.	G2 robust z-score	G2 cells, % of GMNN control	raw share of cells in G2 (%)
RGL2	2	7.18 (active)	53.5	25.1
